The chains behind the UniProt entries cited, without tags or fusion partners.
UniProt A1Z9J5, entry or part of it: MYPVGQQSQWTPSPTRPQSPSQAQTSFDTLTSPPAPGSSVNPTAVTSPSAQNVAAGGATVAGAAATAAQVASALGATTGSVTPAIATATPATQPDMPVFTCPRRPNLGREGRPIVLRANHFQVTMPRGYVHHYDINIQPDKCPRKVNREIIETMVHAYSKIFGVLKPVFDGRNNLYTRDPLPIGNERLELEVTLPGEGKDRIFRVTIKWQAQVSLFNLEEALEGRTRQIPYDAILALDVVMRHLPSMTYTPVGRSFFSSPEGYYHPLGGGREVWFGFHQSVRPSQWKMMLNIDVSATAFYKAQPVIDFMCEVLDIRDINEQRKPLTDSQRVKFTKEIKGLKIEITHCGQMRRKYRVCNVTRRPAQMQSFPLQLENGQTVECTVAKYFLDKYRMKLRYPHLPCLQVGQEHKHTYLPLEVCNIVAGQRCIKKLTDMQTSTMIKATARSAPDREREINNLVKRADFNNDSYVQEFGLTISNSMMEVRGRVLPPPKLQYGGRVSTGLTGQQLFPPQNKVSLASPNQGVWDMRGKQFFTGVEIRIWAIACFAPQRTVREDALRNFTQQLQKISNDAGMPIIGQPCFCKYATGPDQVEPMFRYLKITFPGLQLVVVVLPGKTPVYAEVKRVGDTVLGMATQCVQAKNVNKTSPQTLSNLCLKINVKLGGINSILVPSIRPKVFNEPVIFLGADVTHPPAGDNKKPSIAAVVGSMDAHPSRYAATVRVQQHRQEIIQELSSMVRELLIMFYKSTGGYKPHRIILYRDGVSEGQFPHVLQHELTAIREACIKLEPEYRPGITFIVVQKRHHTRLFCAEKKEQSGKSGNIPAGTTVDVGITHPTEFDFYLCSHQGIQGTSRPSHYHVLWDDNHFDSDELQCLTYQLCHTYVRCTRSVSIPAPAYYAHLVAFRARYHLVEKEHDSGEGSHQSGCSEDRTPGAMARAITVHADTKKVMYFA

In paper PMC12905440:

Columns and labels:
Ago1 (RISC) [1] = target: Ago1 (RISC) (UniProt A1Z9J5); assay: double-filter binding; conditions: stoichiometric titration, filter binding: 25 mM HEPES-KOH pH 7.9, 110 mM KOAc, 3.5 mM Mg(OAc)2, 2 mM DTT, 25 C, protein in a lysate after overexpression, protein details: FLAG, label: 5' 32P
Ago1 (RISC) [2] = target: Ago1 (RISC) (UniProt A1Z9J5); assay: RBNS; conditions: RBNS: 20 mM HEPES-KOH pH 7.9, 100 mM KOAc, 3.5 mM Mg(OAc)2, 0.05% CHAPS, 2 mM DTT, 8% glycerol, BSA, tRNA, 25 C, 2 h, protein in a lysate after overexpression, protein details: FLAG, letters put together from the description
[3] = target: FLAG-Ago1 (RISC) (Drosophila melanogaster) (UniProt A1Z9J5); assay: RNA Bind-n-Seq (filter binding, sequencing, MLE); conditions: guide 5' phosphate, 20 mM HEPES-KOH pH 7.9, 100 mM potassium acetate, 3.5 mM magnesium acetate, 0.05% CHAPS, 2 mM DTT, 8% glycerol, 0.05 ug/ul BSA, 0.01 mg/ml yeast tRNA, 100 nM RNA library, recombinant protein, protein details: FLAG, only the motif is given

“AAAAAAAAAAAAAUUUUUGAUCUCUAAAU / UGAGAUCAUUUUGAAAGCUGAUU [bantam / quantification target]”: binds (Ago1 (RISC) [1]; bantam guide).
For “UUGUGAUA / CAUCACAGUCUGAGUUCUUGC [miR-11 / 8mer-w8]”, the Kd (Ago1 (RISC) [2]; miR-11 guide) was 0.0612 nM.
“CUACCUCA / UGAGGUAGUAGGUUGUAUAGU [let-7 / 8mer]” showed a Kd (Ago1 (RISC) [2]; let-7 guide) of 0.00454 nM.
With “CUACCUC / UGAGGUAGUAGGUUGUAUAGU [let-7 / 7mer-m8]” the Kd ([3]; let-7 guide) was 0.01 nM.
“GAAAAUUUUAAAAAAUCUGUGAUAAAAU / CAUCACAGUCUGAGUUCUUGC [miR-11 / quantification target]”: binds (Ago1 (RISC) [1]; miR-11 guide, letters put together from the description).
With “UGCCUUA / UAAGGCACGCGGUGAAUGCCAAG [miR-124 / 7mer-A1]” the Kd (Ago1 (RISC) [2]; miR-124 guide) was 0.242 nM and the Kd ([3]; miR-124 guide) was 0.242 nM.
“UCCGUCC / UGGACGGAGAACUGAUAAGGGC [miR-184 / 7mer-m8]” gave a Kd ([3]; miR-184 guide) of 0.014 nM.
In the case of “UACCUC / UGAGGUAGUAGGUUGUAUAGU [let-7 / 6mer]”, the Kd ([3]; let-7 guide) is reported as 0.075 nM.
“GAAAAAAAAUAAAUAAAAGUGCCUUUAAAU / UAAGGCACGCGGUGAAUGCCAAG [miR-124 / quantification target]”: binds (Ago1 (RISC) [1]; miR-124 guide, letters put together from the description).
In the case of “CGUCCA / UGGACGGAGAACUGAUAAGGGC [miR-184 / 6mer-A1]”, the Kd ([3]; miR-184 guide) is reported as 0.765 nM.
“UCCGUCCA / UGGACGGAGAACUGAUAAGGGC [miR-184 / 8mer]” showed a Kd ([3]; miR-184 guide) of 0.01 nM.
“GAAAAAAAAAAAAAAAAUCCGUCCUAAAU / UGGACGGAGAACUGAUAAGGGC [miR-184 / quantification target]”: binds (Ago1 (RISC) [1]; miR-184 guide, letters put together from the description).
For “GAUCUCA / UGAGAUCAUUUUGAAAGCUGAUU [bantam / 7mer-A1]”, the Kd ([3]; bantam guide) was 0.052 nM.
In the case of “ACCUCA / UGAGGUAGUAGGUUGUAUAGU [let-7 / 6mer-A1]”, the Kd (Ago1 (RISC) [2]; let-7 guide) is reported as 0.092 nM and the Kd ([3]; let-7 guide) is reported as 0.142 nM.
“GUGCCU / UAAGGCACGCGGUGAAUGCCAAG [miR-124 / 6mer-m8]” gave a Kd ([3]; miR-124 guide) of 0.299 nM.
“UACCUCA / UGAGGUAGUAGGUUGUAUAGU [let-7 / 7mer-A1]” showed a Kd (Ago1 (RISC) [2]; let-7 guide) of 0.0324 nM and a Kd ([3]; let-7 guide) of 0.032 nM.
In the case of “UCCGUC / UGGACGGAGAACUGAUAAGGGC [miR-184 / 6mer-m8]”, the Kd (Ago1 (RISC) [2]; miR-184 guide) is reported as 0.409 nM and the Kd ([3]; miR-184 guide) is reported as 0.413 nM.
In the case of “UGAUCU / UGAGAUCAUUUUGAAAGCUGAUU [bantam / 6mer-m8]”, the Kd (Ago1 (RISC) [2]; bantam guide) is reported as 1.36 nM and the Kd ([3]; bantam guide) is reported as 1.36 nM.
Sequence “CUACCU / UGAGGUAGUAGGUUGUAUAGU [let-7 / 6mer-m8]” has a Kd (Ago1 (RISC) [2]; let-7 guide) of 0.439 nM and a Kd ([3]; let-7 guide) of 0.439 nM.
For “CUGUGA / CAUCACAGUCUGAGUUCUUGC [miR-11 / 6mer-m8]”, the Kd ([3]; miR-11 guide) was 0.418 nM.
“GUGCCUU / UAAGGCACGCGGUGAAUGCCAAG [miR-124 / 7mer-m8]” was tested, and the Kd ([3]; miR-124 guide) was 0.053 nM.
“GAAAAAAAAAAAAAAUCUACCUCUAAAU / UGAGGUAGUAGGUUGUAUAGU [let-7 / quantification target]”: binds (Ago1 (RISC) [1]; let-7 guide).
Sequence “CCGUCC / UGGACGGAGAACUGAUAAGGGC [miR-184 / 6mer]” has a Kd ([3]; miR-184 guide) of 0.084 nM.
For “CUGUGAU / CAUCACAGUCUGAGUUCUUGC [miR-11 / 7mer-m8]”, the Kd ([3]; miR-11 guide) was 0.084 nM.
“UGAUCUC / UGAGAUCAUUUUGAAAGCUGAUU [bantam / 7mer-m8]” gave a Kd ([3]; bantam guide) of 0.078 nM.
Work on “GCCUUA / UAAGGCACGCGGUGAAUGCCAAG [miR-124 / 6mer-A1]” yielded a Kd ([3]; miR-124 guide) of 0.646 nM.
In the case of “UGAUCUCA / UGAGAUCAUUUUGAAAGCUGAUU [bantam / 8mer]”, the Kd (Ago1 (RISC) [2]; bantam guide) is reported as 0.0299 nM and the Kd ([3]; bantam guide) is reported as 0.03 nM.
“UGUGAUA / CAUCACAGUCUGAGUUCUUGC [miR-11 / 7mer-A1]” showed a Kd (Ago1 (RISC) [2]; miR-11 guide, 70 pM given in bulge section) of 0.0917 nM, a Kd (Ago1 (RISC) [2]; miR-11 guide, 91.7 pM given in G:U section) of 0.07 nM and a Kd ([3]; miR-11 guide) of 0.092 nM.
Sequence “AUCUCA / UGAGAUCAUUUUGAAAGCUGAUU [bantam / 6mer-A1]” has a Kd ([3]; bantam guide) of 1.1 nM.
Work on “GUGCCUUA / UAAGGCACGCGGUGAAUGCCAAG [miR-124 / 8mer]” yielded a Kd ([3]; miR-124 guide) of 0.022 nM.
Work on “CCGUCCA / UGGACGGAGAACUGAUAAGGGC [miR-184 / 7mer-A1]” yielded a Kd (Ago1 (RISC) [2]; miR-184 guide) of 0.037 nM and a Kd ([3]; miR-184 guide) of 0.048 nM.
For “UGCCUU / UAAGGCACGCGGUGAAUGCCAAG [miR-124 / 6mer]”, the Kd ([3]; miR-124 guide) was 0.571 nM.
“CUGUGAUA / CAUCACAGUCUGAGUUCUUGC [miR-11 / 8mer]” gave a Kd ([3]; miR-11 guide) of 0.018 nM.
Sequence “UUACCUCA / UGAGGUAGUAGGUUGUAUAGU [let-7 / 8mer-w8]” has a Kd (Ago1 (RISC) [2]; let-7 guide) of 0.0154 nM.
With “GAUCUC / UGAGAUCAUUUUGAAAGCUGAUU [bantam / 6mer]” the Kd ([3]; bantam guide) was 0.15 nM.

Construct, isoform or probe ends are uncertain for at least one entry. For part of these data: Where cells or extracts were used, other partners may take part. For part of these data: At least one verdict rests on a figure or table, not on a statement of the authors.
